Test results published in the supplement of paper PMC10849652.
The other results are listed elsewhere or left out.

Amino acid sequences for entries named in this document (tags omitted). A change or cut given only in a name is not applied to a line headed by its entry.
UniProt Q8WV19: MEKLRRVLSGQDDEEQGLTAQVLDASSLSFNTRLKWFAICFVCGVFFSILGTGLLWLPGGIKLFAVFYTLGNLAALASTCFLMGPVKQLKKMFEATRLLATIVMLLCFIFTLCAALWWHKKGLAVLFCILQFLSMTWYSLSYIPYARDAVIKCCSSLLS
UniProt Q96EP9: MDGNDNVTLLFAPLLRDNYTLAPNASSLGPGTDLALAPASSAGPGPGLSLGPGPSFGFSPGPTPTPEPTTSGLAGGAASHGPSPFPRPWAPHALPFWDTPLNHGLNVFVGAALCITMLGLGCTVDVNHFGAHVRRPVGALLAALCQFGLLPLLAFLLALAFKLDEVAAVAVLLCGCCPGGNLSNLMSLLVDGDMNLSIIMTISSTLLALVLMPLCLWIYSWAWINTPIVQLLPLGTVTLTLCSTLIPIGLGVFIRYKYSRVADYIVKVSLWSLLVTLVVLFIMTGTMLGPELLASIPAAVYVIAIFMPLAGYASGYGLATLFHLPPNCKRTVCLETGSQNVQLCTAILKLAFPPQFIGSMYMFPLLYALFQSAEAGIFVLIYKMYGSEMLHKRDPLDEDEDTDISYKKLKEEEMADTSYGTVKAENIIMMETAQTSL
UniProt Q8IYI0: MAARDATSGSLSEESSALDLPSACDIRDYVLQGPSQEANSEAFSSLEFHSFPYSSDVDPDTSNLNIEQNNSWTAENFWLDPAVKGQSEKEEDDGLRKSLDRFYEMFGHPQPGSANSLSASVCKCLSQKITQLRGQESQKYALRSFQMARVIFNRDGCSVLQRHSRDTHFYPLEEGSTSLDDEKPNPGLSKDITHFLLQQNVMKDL
UniProt O15427: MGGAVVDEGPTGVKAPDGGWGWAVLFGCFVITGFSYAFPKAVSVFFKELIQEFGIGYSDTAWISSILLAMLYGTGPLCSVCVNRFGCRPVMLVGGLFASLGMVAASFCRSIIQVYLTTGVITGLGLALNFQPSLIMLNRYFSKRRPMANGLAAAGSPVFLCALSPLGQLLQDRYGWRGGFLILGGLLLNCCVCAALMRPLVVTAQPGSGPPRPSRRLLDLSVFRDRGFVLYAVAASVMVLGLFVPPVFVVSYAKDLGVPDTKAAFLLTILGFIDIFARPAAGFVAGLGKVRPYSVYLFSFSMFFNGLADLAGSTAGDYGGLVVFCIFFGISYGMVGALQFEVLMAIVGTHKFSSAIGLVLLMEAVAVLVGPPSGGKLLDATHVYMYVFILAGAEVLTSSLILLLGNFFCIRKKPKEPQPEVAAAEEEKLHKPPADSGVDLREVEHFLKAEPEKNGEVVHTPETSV
UniProt Q9UHW9: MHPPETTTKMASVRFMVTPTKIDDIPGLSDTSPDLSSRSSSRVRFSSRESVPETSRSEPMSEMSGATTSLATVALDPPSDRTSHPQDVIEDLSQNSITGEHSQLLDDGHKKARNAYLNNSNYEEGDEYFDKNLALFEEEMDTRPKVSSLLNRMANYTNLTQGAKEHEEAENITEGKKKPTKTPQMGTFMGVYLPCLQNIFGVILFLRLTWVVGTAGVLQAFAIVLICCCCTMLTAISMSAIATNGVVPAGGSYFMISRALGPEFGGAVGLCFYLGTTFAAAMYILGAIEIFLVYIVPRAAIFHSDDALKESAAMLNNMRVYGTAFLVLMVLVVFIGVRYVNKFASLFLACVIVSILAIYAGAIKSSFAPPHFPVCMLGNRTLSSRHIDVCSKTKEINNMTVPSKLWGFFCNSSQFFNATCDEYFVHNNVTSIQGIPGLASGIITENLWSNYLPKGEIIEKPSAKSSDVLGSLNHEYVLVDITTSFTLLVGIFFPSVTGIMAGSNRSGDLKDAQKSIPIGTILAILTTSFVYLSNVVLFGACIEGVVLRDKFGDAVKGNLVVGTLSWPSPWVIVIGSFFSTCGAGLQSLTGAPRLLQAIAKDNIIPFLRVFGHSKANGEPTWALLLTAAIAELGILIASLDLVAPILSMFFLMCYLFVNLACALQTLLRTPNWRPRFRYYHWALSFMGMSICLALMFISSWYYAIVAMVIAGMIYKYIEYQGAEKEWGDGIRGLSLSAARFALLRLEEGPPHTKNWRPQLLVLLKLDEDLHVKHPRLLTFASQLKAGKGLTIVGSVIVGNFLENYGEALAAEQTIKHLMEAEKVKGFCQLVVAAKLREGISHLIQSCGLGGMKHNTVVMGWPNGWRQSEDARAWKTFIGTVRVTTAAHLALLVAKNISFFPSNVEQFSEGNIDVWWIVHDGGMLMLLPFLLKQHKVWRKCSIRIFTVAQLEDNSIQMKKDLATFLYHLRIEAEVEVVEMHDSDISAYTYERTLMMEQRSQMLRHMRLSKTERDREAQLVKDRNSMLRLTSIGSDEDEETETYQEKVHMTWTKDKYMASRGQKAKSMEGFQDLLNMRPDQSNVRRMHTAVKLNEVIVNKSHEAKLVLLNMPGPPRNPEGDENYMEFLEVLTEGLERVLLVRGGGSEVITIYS
UniProt P51688: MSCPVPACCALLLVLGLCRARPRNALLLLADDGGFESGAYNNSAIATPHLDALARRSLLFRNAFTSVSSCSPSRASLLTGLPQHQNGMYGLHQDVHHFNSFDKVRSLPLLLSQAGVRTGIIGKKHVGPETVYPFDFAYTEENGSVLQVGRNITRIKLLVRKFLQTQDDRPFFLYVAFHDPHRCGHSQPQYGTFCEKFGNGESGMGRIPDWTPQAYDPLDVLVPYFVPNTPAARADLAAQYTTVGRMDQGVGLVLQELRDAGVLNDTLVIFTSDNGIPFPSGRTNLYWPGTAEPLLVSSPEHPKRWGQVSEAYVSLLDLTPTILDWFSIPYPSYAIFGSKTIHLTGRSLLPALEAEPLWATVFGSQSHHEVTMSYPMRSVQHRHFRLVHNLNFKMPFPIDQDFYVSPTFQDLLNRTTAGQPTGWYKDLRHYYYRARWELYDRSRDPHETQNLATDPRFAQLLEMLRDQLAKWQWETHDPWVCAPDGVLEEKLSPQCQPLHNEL
UniProt Q8TBK2: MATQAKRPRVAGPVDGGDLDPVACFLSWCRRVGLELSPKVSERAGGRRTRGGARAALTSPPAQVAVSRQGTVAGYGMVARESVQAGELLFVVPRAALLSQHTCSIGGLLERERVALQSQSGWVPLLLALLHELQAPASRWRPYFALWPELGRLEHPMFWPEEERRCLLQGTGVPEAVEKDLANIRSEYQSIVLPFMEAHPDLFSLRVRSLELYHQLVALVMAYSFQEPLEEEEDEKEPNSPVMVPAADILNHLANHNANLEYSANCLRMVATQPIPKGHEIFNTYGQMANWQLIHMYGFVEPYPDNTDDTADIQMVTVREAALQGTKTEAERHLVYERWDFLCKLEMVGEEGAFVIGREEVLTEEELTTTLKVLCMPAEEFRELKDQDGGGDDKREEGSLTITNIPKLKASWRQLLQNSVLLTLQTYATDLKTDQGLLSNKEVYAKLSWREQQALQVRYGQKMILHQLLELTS
UniProt Q86VW0: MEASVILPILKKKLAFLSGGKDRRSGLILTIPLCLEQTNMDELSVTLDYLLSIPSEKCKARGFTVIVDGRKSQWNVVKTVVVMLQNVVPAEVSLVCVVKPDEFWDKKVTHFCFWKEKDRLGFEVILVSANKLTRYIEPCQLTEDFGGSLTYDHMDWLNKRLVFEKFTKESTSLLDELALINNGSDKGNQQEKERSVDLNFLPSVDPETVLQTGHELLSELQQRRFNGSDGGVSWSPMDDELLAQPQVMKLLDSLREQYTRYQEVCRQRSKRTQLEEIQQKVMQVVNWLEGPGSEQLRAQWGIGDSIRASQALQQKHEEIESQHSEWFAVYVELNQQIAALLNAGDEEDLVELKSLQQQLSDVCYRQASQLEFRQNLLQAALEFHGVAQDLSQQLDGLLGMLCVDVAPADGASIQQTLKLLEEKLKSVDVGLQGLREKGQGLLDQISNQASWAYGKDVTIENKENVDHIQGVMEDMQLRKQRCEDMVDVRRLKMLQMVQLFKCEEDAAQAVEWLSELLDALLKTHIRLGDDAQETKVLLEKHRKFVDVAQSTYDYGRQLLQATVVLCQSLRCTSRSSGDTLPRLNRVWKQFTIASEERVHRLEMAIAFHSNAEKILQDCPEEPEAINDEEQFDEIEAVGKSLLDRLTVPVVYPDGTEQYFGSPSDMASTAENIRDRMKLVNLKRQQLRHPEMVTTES
UniProt Q8IW75: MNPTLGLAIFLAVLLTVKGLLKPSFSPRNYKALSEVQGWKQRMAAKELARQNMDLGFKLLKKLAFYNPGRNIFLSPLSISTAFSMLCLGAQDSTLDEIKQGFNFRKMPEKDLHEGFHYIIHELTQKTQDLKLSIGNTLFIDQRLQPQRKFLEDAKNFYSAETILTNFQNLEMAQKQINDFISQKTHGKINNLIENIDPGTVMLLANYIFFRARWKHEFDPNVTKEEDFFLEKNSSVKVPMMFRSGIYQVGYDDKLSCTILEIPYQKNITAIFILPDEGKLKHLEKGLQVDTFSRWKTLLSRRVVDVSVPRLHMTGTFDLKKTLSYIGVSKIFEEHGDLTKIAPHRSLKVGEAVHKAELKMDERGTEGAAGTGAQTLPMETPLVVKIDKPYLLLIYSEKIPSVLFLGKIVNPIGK
UniProt Q15464: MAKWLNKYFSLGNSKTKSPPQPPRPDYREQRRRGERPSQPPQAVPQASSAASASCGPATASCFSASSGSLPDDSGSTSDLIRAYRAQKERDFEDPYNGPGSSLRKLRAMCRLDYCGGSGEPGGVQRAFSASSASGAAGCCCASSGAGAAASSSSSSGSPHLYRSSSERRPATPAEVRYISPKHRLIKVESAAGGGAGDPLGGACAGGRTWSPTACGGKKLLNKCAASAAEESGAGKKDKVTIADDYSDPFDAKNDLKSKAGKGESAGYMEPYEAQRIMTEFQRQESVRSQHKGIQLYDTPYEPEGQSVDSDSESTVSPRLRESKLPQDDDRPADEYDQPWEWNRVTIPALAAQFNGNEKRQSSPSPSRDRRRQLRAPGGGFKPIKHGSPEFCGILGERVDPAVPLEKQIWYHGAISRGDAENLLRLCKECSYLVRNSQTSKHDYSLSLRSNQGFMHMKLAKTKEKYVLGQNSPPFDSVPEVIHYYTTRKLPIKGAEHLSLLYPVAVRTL
UniProt Q9HAT2: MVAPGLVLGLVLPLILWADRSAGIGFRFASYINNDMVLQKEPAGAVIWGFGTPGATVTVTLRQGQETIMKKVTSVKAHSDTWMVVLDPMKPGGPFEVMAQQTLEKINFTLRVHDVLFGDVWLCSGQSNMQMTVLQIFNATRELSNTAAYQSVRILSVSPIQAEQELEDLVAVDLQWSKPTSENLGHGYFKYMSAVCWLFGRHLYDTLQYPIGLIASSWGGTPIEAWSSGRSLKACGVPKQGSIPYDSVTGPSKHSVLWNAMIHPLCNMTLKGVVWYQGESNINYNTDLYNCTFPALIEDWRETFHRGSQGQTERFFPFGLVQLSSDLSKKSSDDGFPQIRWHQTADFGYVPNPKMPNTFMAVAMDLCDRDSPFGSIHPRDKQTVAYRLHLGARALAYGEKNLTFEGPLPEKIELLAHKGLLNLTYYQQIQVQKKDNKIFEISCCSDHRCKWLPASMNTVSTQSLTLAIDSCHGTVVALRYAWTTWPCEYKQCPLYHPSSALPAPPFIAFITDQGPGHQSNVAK
UniProt P29353: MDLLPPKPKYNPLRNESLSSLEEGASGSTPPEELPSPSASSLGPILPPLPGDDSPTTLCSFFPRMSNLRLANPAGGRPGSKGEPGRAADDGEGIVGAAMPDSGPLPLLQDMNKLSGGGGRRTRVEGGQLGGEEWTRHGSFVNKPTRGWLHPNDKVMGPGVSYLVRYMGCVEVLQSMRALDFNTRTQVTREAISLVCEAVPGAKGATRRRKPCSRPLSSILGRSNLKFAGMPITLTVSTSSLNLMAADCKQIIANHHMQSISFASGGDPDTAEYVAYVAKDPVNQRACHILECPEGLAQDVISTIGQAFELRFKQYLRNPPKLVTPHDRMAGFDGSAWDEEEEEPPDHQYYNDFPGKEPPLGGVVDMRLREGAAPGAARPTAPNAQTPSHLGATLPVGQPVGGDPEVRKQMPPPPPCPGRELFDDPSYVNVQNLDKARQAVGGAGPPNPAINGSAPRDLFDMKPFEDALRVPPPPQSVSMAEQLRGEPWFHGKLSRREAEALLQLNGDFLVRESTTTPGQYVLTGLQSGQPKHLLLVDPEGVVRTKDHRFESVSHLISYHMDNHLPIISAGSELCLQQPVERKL
UniProt Q01105, whole entry, looked up: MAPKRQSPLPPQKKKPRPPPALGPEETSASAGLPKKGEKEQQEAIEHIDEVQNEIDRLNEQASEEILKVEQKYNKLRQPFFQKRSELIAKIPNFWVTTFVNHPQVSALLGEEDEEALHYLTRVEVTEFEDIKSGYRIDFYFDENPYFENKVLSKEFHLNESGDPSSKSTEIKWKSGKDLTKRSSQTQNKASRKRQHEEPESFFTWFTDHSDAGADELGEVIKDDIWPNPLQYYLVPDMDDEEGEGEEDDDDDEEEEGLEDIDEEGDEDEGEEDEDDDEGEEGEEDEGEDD

How the values were obtained:
Assay in all cases: log2 fold change, soluble protein after heating vs DMSO (PISA); higher = thermal stabilisation; K562 lysate, 10 uM; active = over 0.2 and 3.5 SD of the protein, either way, in both replicates (recomputed)
barasertib = compound: CCN(CCCOc1ccc2c(Nc3cc(CC(=O)Nc4cccc(F)c4)[nH]n3)ncnc2c1)CCOP(=O)(O)O [barasertib]
In short: (§1)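 A 30 min treatment with 10 μM compound was applied to crude K562 extract at 1 mg/mL protein in PBS pH 7.4 with 1 mM MgCl2. Heating for 3 min spanned 48°C-58°C, after which aliquots were pooled, adjusted to 0.5% NP-40 at 4°C and spun at 21,000xg for 90 min. TMTpro 16plex LC-MS/MS of the supernatant, with channel sums equalised, gave values recorded as log-two fold change in thermal stability against solvent controls, from duplicates.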

[1] = compound: CCCS(=O)(=O)Nc1ccc(F)c(C(=O)c2c[nH]c3ncc(Cl)cc23)c1F
In short: as §1

volasertib = compound: CC[C@@H]1C(=O)N(C)c2cnc(Nc3ccc(C(=O)N[C@H]4CC[C@H](N5CCN(CC6CC6)CC5)CC4)cc3OC)nc2N1C(C)C [volasertib]
In short: as §1

[2] = compound: CCn1cc(-c2ccnc3[nH]c(-c4cccc(CN(C)C)c4)cc23)c(-c2ccc(NC(=O)N(C)C)cc2)n1
In short: as §1

[3] = compound: CN1CCC(CNc2ccc3ncc(-c4cccc(OC(F)(F)F)c4)n3n2)CC1
In short: as §1

alvocidib = compound: CN1CC[C@H](c2c(O)cc(O)c3c(=O)cc(-c4ccccc4Cl)oc23)[C@H](O)C1 [alvocidib]
In short: as §1

[4] = compound: COc1cc2nc(-c3cc(F)ccc3O)nc(N[C@@H]3CNC[C@H]3C(C)(C)O)c2cc1OC
In short: as §1

[5] = compound: CC[C@@H]1C(=O)N(C)c2cnc(Nc3ccc(C(=O)NC4CCN(C)CC4)cc3OC)nc2N1C1CCCC1
In short: as §1

[6] = compound: CCn1c(C(=O)N(C2CC2)C2CC2)cc2c3c(ncn3C)c(Nc3cc(C)n(C)n3)nc21
In short: as §1

saracatinib = compound: CN1CCN(CCOc2cc(OC3CCOCC3)c3c(Nc4c(Cl)ccc5c4OCO5)ncnc3c2)CC1 [saracatinib]
In short: as §1

sotrastaurin = compound: CN1CCN(c2nc(C3=C(c4c[nH]c5ccccc45)C(=O)NC3=O)c3ccccc3n2)CC1 [sotrastaurin]
In short: as §1

Tubastatin A = compound: CN1CCc2c(c3ccccc3n2Cc2ccc(C(=O)NO)cc2)C1 [Tubastatin A]
In short: as §1

[7] = compound: CNC(=O)C1=CC=CC=C1NC2=NC(=NC=C2Cl)NC3=C(C=C(C=C3)N4CCOCC4)OC
In short: as §1

[8] = compound: CNc1nc(-c2ccc3c(N)n[nH]c3c2)cc(N2C[C@@H](C(=O)NC3CCCCC3)CC[C@H]2C)n1
In short: as §1

encorafenib = compound: COC(=O)N[C@@H](C)CNc1nccc(-c2cn(C(C)C)nc2-c2cc(Cl)cc(NS(C)(=O)=O)c2F)n1 [encorafenib]
In short: as §1

[9] = compound: COC(=O)[C@H](CCSC)NC(=O)C1=C(C=C(C=C1)NC[C@H](CS)N)C2=CC=CC=C2
In short: as §1

alisertib = compound: COc1cc(Nc2ncc3c(n2)-c2ccc(Cl)cc2C(c2c(F)cccc2OC)=NC3)ccc1C(=O)O [alisertib]
In short: as §1

gefitinib = compound: COc1cc2ncnc(Nc3ccc(F)c(Cl)c3)c2cc1OCCCN1CCOCC1 [gefitinib]
In short: as §1

Measured: log2 fold change

SHMT2 (UniProt G3V2Y4)
inactive: barasertib 0.065

SLC12A7 (UniProt Q9Y666)
inactive: [1] -0.169 | volasertib 0.186 | [2] -0.071 | [3] -0.099 | alvocidib 0.144 | [4] 0.082

SIK3 (UniProt Q9Y2K2)
inactive: [5] 0.251 | [6] -0.076 | [2] -0.135 | [3] 0.398 | saracatinib 0.1 | sotrastaurin 0.014 | alvocidib 0.187 | Tubastatin A 0.161 | [7] -0.011 | [8] 0.056 | encorafenib -0.164 | [9] -0.332 | alisertib -0.064 | gefitinib 0.123

SFT2D1 (UniProt Q8WV19)
inactive: saracatinib 0.077 | sotrastaurin 0.061 | [8] 0.077

SGO2 (UniProt Q562F6)
inactive: barasertib 0.03 | [5] -0.056 | [6] -0.122 | sotrastaurin -0.013 | Tubastatin A 0.098 | encorafenib -0.093 | [9] 0.053

SF3B2 (UniProt E9PJ04)
inactive: [1] 0.114 | barasertib -0.017 | volasertib -0.083 | [2] -0.1 | [3] 0.139 | alvocidib 0.082 | [7] -0.056 | alisertib 0.081 | [4] 0.025 | gefitinib -0.09

SLAIN2 (UniProt D6RIF6)
inactive: [6] -0.26 | sotrastaurin 0.006 | Tubastatin A 0.286

SH2D3A (UniProt Q9BRG2)
inactive: barasertib 0.215 | [6] 0.16 | Tubastatin A -0.113 | alisertib -0.178 | gefitinib 0.042

SLC10A4 (UniProt Q96EP9)
inactive: [1] -0.034 | volasertib -0.047 | [6] -0.392 | saracatinib 0.015 | Tubastatin A 0.031 | [7] 0.042 | [8] 0.06 | [4] 0.065

SHQ1 (UniProt Q6PI26)
inactive: barasertib 0.055 | [6] 0.005 | [2] 0.087 | [3] -0.179 | saracatinib 0.288 | sotrastaurin 0.005 | alvocidib 0.048 | Tubastatin A 0.082 | [7] -0.008 | [8] -0.235 | alisertib 0.027 | gefitinib 0.074

SHLD1 (UniProt Q8IYI0)
inactive: [5] 0.168 | saracatinib 0.252 | [8] 0.398 | encorafenib -0.064 | [9] 0.118

SERPINH1 (UniProt E9PK86)
inactive: alisertib -0.084 | gefitinib -0.05

SERPINB13 (UniProt Q9UIV8)
inactive: barasertib 0.37

SLC16A3 (UniProt O15427)
inactive: [6] -0.126 | Tubastatin A -0.151

SLC12A6 isoform 2 (UniProt Q9UHW9)
inactive: [1] 0.009 | [5] 0.053 | volasertib -0.178 | [6] -0.021 | saracatinib 0.042 | sotrastaurin 0.057 | Tubastatin A -0.013 | [7] -0.149 | [8] -0.008 | encorafenib 0.031 | [9] 0.075 | [4] -0.106

SGSH (UniProt P51688)
inactive: [2] -0.206 | [3] 0.083 | alvocidib -0.039

SHMT1 (UniProt J3KRZ5)
inactive: alisertib 0.08 | gefitinib -0.104

SETD6 (UniProt Q8TBK2)
inactive: [6] -0.003 | saracatinib 0.063 | Tubastatin A -0.002 | [7] -0.016 | [8] -0.167 | alisertib -0.155 | gefitinib 0.147

SESTD1 (UniProt Q86VW0)
inactive: [6] 0.219 | sotrastaurin -0.222 | Tubastatin A -0.184

SERAC1 (UniProt Q96JX3)
inactive: barasertib 0.142 | [5] 0.1 | [2] -0.061 | [3] 0.051 | saracatinib -0.096 | alvocidib 0.048 | [7] -0.024 | [8] 0.149 | encorafenib -0.051 | [9] -0.003 | alisertib -0.412 | gefitinib -0.165

SERPINA12 (UniProt Q8IW75)
inactive: [1] -0.338 | barasertib -0.299 | volasertib 0.164 | [6] -0.07 | saracatinib -0.164 | sotrastaurin -0.194 | Tubastatin A -0.002 | [7] -0.161 | [8] 0.087 | alisertib 0.06 | [4] -0.348 | gefitinib 0.736

SLC11A1, A0A0A0MTL3
inactive: [1] -0.148 | volasertib -0.004 | alisertib -0.085 | [4] 0.072 | gefitinib 0.068

SHB (UniProt Q15464)
inactive: [1] -0.049 | volasertib 0.072 | [6] 0.113 | [2] -0.125 | [3] -0.162 | saracatinib 0.003 | sotrastaurin -0.003 | alvocidib -0.139 | Tubastatin A -0.108 | [7] 0.169 | [8] 0.067 | [4] 0.034

SIK2 (UniProt Q9H0K1)
inactive: [5] 0.018 | [6] 0.009 | [2] -0.187 | [3] 0.106 | alvocidib 0.007 | Tubastatin A 0.154 | encorafenib -0.085 | [9] 0.005 | alisertib -0.084 | gefitinib 0.196

SIAE (UniProt Q9HAT2)
inactive: barasertib 0.127 | [5] 0.024 | [6] -0.123 | [2] -0.026 | [3] -0.058 | sotrastaurin 0.064 | alvocidib 0.043 | Tubastatin A 0.105 | encorafenib 0.07 | [9] -0.014

SHC1 (UniProt P29353)
inactive: [2] -0.2 | [3] -0.114 | alvocidib 0.144

SET isoform 3 (UniProt Q01105)
inactive: [5] -0.28 | [2] -0.177 | [3] 0.094 | saracatinib 0.172 | alvocidib -0.038 | [8] 0.2 | encorafenib 0.109 | [9] -0.169
